Test results published in the supplement of paper PMC8728848.
The list shows a part of the results.

Columns and labels:
Test in all cases: glycan array binding signal (z-score within array); higher = stronger binding
Conditions in all cases: glycan notation: IUPAC condensed, linker removed
[1] = target: Fuc(a1-2)[Gal(a1-4)]Gal(b1-4)GlcNAc
In short: (§1)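 Glycan array binding is given as a within-array Z-score, which can be read as non-binding when negative. The arrays, 3228 of them, came from the Consortium for Functional Glycomics database and were retained only where the protein sequence was available. Z-scores were averaged across arrays of the same protein sequence at different concentrations or buffers and across linkers.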

[2] = target: Fuc(a1-2)[GalNAc(a1-3)]Gal
In short: as §1

[3] = target: Fuc(a1-2)[GalNAc(a1-3)]Gal(b1-3)GalNAc(a1-3)[Fuc(a1-2)]Gal(b1-4)GlcNAc
In short: as §1

[4] = target: Fuc(a1-2)[GalNAc(a1-3)]Gal(b1-3)GalNAc(b1-3)Gal(a1-4)Gal(b1-4)Glc
In short: as §1

[5] = target: Fuc(a1-2)[GalNAc(a1-3)]Gal(b1-3)GlcNAc
In short: as §1

[6] = target: Fuc(a1-2)[GalNAc(a1-3)]Gal(b1-3)GlcNAc(b1-2)Man(a1-3)[Fuc(a1-2)[GalNAc(a1-3)]Gal(b1-3)GlcNAc(b1-2)Man(a1-6)]Man(b1-4)GlcNAc(b1-4)GlcNAc
In short: as §1

[7] = target: Fuc(a1-2)[GalNAc(a1-3)]Gal(b1-3)GlcNAc(b1-2)Man(a1-3)[Fuc(a1-2)[GalNAc(a1-3)]Gal(b1-3)GlcNAc(b1-2)Man(a1-6)]Man(b1-4)GlcNAc(b1-4)[Fuc(a1-6)]GlcNAc
In short: as §1

[8] = target: Fuc(a1-2)[GalNAc(a1-3)]Gal(b1-3)GlcNAc(b1-3)GalNAc
In short: as §1

[9] = target: Fuc(a1-2)[GalNAc(a1-3)]Gal(b1-3)GlcNAc(b1-6)GalNAc
In short: as §1

[10] = target: Fuc(a1-2)[GalNAc(a1-3)]Gal(b1-4)Glc
In short: as §1

[11] = target: Fuc(a1-2)[GalNAc(a1-3)]Gal(b1-4)GlcNAc
In short: as §1

[12] = target: Fuc(a1-2)[GalNAc(a1-3)]Gal(b1-4)GlcNAc(b1-2)Man
In short: as §1

[13] = target: Fuc(a1-2)[GalNAc(a1-3)]Gal(b1-4)GlcNAc(b1-2)Man(a1-3)[Fuc(a1-2)[GalNAc(a1-3)]Gal(b1-4)GlcNAc(b1-2)Man(a1-6)]Man(b1-4)GlcNAc(b1-4)GlcNAc
In short: as §1

[14] = target: Fuc(a1-2)[GalNAc(a1-3)]Gal(b1-4)GlcNAc(b1-2)Man(a1-3)[Fuc(a1-2)[GalNAc(a1-3)]Gal(b1-4)GlcNAc(b1-2)Man(a1-6)]Man(b1-4)GlcNAc(b1-4)[Fuc(a1-6)]GlcNAc
In short: as §1

[15] = target: Fuc(a1-2)[GalNAc(a1-3)]Gal(b1-4)GlcNAc(b1-3)Gal(b1-4)GlcNAc
In short: as §1

[16] = target: Fuc(a1-2)[GalNAc(a1-3)]Gal(b1-4)GlcNAc(b1-3)Gal(b1-4)GlcNAc(b1-3)Gal(b1-4)GlcNAc
In short: as §1

[17] = target: Fuc(a1-2)[GalNAc(a1-3)]Gal(b1-4)GlcNAc(b1-3)GalNAc
In short: as §1

[18] = target: Fuc(a1-2)[GalNAc(a1-3)]Gal(b1-4)GlcNAc(b1-3)[Fuc(a1-2)[GalNAc(a1-3)]Gal(b1-4)GlcNAc(b1-6)]GalNAc
In short: as §1

[19] = target: Fuc(a1-2)[GalNAc(a1-3)]Gal(b1-4)GlcNAc(b1-6)GalNAc
In short: as §1

[20] = target: Fuc(a1-2)[GalNAc(a1-3)]Gal(b1-4)[Fuc(a1-3)]GlcNAc
In short: as §1

[21] = target: Fuc(a1-2)[GalNAc(a1-3)]Gal(b1-4)[Fuc(a1-3)]GlcNAc(b1-3)GalNAc
In short: as §1

[22] = target: Fuc(a1-2)[GalNAc(a1-4)]Gal(b1-4)GlcNAc
In short: as §1

[23] = target: Fuc(a1-2)[GalNAc(b1-3)]Gal
In short: as §1

Fuc(a1-3)GlcNAc = target: Fuc(a1-3)GlcNAc
In short: as §1

[24] = target: Fuc(a1-3)[Gal(b1-4)]Glc6S
In short: as §1

[25] = target: Fuc(a1-3)[Gal(b1-4)]GlcNAc
In short: as §1

[26] = target: Fuc(a1-3)[Gal(b1-4)]GlcNAc(b1-2)Man
In short: as §1

[27] = target: Fuc(a1-3)[Gal(b1-4)]GlcNAc(b1-2)Man(a1-3)[Fuc(a1-3)[Gal(b1-4)]GlcNAc(b1-2)Man(a1-6)]Man(b1-4)GlcNAc(b1-4)GlcNAc
In short: as §1

[28] = target: Fuc(a1-3)[Gal(b1-4)]GlcNAc(b1-2)Man(a1-3)[Fuc(a1-3)[Gal(b1-4)]GlcNAc(b1-2)Man(a1-6)]Man(b1-4)GlcNAc(b1-4)[Fuc(a1-6)]GlcNAc
In short: as §1

[29] = target: Fuc(a1-3)[Gal(b1-4)]GlcNAc(b1-3)Gal(b1-3)[Fuc(a1-4)]GlcNAc
In short: as §1

[30] = target: Fuc(a1-3)[Gal(b1-4)]GlcNAc(b1-3)Gal(b1-4)[Fuc(a1-3)]GlcNAc
In short: as §1

[31] = target: Fuc(a1-3)[Gal(b1-4)]GlcNAc(b1-3)Gal(b1-4)[Fuc(a1-3)]GlcNAc(b1-3)Gal(b1-4)[Fuc(a1-3)]GlcNAc
In short: as §1

[32] = target: Fuc(a1-3)[Gal(b1-4)]GlcNAc(b1-3)GalNAc
In short: as §1

[33] = target: Fuc(a1-3)[Gal(b1-4)]GlcNAc(b1-6)GalNAc
In short: as §1

[34] = target: Fuc(a1-3)[Gal(b1-4)]GlcNAc(b1-6)[Gal(b1-3)GlcNAc(b1-3)]Gal(b1-4)Glc
In short: as §1

[35] = target: Fuc(a1-3)[Gal(b1-4)]GlcNAc6S
In short: as §1

[36] = target: Fuc(a1-3)[Gal3S(b1-4)]Glc
In short: as §1

[37] = target: Fuc(a1-3)[Gal3S(b1-4)]GlcNAc
In short: as §1

B1: Vd7LysM (Verticillium dahliae) (protein)
chain: RRGPEPKYPPAAGTSSYCSYWVDYEGDKSCSRVLEDNVVVLKDFARWNPTVGADCSGIKAGNSYCVEAFGEPEPIEVTTTTRAATTTTQPTATTTTFANGIATPQPTQSGMVTNCNKFHWIAEGVSCSQVISFQKITLADFVKWNPSVKSDCSGMWAGVNVCVGVVGSSTDTAKPTTTAPSNGVVTPQPTQPSMVTNCNKFHWIAKGVTCQQVISYQKISLADFVKWNPSVLSDCSGMWAEVQVCVGVIGSTPTTLATTTTTAGNGVSTPLPTQPGMVTNCAKFHWVAKGVTCNQIYSFQKITLEQFVSYNPTVKSDCSGMQAEVQVCVGLIAGTTPTTTRPPTTTAPGNGVSTPQPTQPGMVTNCAKFHWVAKGVTCNQIYSFQKITLEQFVSFNPTVKSDCTGMQAEVNVCVGLIGGNPTPTQTGNGIATPTPIQPGMVSNCKKFHWIAQGVTCQQVISFQKITLADFVKWNTGVGSDCRTMWAETNVCVGV
glycan array binding signal (z-score) [1]: -0.292
glycan array binding signal (z-score) [2]: 0.378
glycan array binding signal (z-score) [3]: -0.428
glycan array binding signal (z-score) [4]: -0.537
glycan array binding signal (z-score) [5]: -1.28
glycan array binding signal (z-score) [6]: 1.28
glycan array binding signal (z-score) [7]: -0.558
glycan array binding signal (z-score) [8]: -0.583
glycan array binding signal (z-score) [9]: -0.331
glycan array binding signal (z-score) [10]: -0.37
glycan array binding signal (z-score) [11]: 0.25
glycan array binding signal (z-score) [12]: 0.109
glycan array binding signal (z-score) [13]: 0.669
glycan array binding signal (z-score) [14]: -0.531
glycan array binding signal (z-score) [15]: 1.94
glycan array binding signal (z-score) [16]: 1.23
glycan array binding signal (z-score) [17]: 0.906
glycan array binding signal (z-score) [18]: -1.58
glycan array binding signal (z-score) [19]: -0.162
glycan array binding signal (z-score) [20]: 0.06
glycan array binding signal (z-score) [21]: -0.854
glycan array binding signal (z-score) [22]: -0.525
glycan array binding signal (z-score) [23]: 0.38
glycan array binding signal (z-score) (Fuc(a1-3)GlcNAc): 0.586
glycan array binding signal (z-score) [24]: 0.721
glycan array binding signal (z-score) [25]: -0.68
glycan array binding signal (z-score) [26]: -0.427
glycan array binding signal (z-score) [27]: -0.585
glycan array binding signal (z-score) [28]: 0.984
glycan array binding signal (z-score) [29]: 1.12
glycan array binding signal (z-score) [30]: 0.465
glycan array binding signal (z-score) [31]: 1.1
glycan array binding signal (z-score) [32]: 0.444
glycan array binding signal (z-score) [33]: -1.46
glycan array binding signal (z-score) [34]: -0.045
glycan array binding signal (z-score) [35]: 0.976
glycan array binding signal (z-score) [36]: -0.272
glycan array binding signal (z-score) [37]: 0.736
